The supplement of paper PMC10849652
Some of the results follow.

Amino acid sequences for entries named in this document (tags omitted). A change or cut given only in a name is not applied to a line headed by its entry.
UniProt Q92620: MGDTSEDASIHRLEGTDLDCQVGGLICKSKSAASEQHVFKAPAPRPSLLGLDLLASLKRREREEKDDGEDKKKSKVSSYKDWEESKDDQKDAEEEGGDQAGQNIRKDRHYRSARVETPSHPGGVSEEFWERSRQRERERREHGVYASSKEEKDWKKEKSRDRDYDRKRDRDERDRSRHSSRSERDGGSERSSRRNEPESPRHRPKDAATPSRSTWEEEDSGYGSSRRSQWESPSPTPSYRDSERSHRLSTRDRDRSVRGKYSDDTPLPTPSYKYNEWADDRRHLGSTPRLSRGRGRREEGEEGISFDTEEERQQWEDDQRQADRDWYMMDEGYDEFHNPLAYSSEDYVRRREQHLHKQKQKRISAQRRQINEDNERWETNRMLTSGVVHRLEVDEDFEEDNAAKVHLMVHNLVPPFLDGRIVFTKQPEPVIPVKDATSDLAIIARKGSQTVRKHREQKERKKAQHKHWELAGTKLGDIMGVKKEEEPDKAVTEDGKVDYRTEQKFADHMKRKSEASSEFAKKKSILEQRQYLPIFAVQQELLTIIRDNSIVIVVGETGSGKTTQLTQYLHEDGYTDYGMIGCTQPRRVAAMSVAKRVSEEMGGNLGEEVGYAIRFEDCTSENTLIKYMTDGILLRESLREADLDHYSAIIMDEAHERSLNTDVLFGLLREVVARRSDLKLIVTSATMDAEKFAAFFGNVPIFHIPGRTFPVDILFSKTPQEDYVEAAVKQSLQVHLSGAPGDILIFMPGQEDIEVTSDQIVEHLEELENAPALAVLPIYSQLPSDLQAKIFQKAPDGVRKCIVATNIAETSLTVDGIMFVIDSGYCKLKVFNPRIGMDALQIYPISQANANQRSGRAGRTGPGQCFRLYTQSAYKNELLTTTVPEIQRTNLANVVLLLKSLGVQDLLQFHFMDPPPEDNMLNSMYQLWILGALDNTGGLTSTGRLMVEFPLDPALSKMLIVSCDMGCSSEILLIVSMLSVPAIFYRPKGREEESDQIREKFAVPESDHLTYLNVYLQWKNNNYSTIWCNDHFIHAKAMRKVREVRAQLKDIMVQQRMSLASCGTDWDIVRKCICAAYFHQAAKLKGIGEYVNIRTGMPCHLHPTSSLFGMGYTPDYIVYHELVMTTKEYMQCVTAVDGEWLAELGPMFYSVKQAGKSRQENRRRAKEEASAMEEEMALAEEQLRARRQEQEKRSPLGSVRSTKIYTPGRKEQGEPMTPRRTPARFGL
UniProt Q7Z478: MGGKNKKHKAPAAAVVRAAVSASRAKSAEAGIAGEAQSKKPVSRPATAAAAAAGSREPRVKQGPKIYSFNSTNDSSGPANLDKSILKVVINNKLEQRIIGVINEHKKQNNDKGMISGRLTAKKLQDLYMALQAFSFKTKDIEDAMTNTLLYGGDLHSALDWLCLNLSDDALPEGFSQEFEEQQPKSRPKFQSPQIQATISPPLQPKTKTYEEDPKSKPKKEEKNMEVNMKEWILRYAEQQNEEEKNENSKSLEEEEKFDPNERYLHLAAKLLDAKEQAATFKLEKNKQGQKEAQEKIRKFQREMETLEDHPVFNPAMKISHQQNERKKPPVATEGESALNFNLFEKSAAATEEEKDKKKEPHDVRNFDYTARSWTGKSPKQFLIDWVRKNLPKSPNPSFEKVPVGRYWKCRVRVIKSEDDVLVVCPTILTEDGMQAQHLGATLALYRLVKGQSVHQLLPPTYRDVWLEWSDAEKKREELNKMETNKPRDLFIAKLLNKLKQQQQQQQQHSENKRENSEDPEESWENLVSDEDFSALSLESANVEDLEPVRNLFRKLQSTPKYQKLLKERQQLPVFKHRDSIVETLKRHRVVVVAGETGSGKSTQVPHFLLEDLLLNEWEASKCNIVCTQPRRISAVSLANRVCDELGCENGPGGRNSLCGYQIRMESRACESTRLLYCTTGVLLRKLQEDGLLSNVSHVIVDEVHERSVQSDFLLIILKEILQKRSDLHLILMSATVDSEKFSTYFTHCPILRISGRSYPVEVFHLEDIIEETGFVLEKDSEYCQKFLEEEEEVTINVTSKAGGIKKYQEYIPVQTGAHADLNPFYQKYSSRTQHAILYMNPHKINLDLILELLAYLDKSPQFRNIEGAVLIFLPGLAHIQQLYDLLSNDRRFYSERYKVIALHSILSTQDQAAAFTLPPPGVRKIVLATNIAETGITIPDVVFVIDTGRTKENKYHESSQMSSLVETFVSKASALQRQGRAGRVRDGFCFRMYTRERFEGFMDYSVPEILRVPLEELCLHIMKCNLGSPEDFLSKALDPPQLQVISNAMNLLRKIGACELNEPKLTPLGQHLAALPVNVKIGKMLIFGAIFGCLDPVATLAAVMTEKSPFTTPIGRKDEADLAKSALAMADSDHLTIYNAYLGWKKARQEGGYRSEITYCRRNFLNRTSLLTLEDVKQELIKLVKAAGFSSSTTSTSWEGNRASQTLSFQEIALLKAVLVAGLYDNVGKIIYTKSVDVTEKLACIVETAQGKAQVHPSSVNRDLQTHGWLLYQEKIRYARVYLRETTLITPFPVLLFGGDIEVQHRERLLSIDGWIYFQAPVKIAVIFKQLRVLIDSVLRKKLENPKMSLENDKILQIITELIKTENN
UniProt Q8WYQ5: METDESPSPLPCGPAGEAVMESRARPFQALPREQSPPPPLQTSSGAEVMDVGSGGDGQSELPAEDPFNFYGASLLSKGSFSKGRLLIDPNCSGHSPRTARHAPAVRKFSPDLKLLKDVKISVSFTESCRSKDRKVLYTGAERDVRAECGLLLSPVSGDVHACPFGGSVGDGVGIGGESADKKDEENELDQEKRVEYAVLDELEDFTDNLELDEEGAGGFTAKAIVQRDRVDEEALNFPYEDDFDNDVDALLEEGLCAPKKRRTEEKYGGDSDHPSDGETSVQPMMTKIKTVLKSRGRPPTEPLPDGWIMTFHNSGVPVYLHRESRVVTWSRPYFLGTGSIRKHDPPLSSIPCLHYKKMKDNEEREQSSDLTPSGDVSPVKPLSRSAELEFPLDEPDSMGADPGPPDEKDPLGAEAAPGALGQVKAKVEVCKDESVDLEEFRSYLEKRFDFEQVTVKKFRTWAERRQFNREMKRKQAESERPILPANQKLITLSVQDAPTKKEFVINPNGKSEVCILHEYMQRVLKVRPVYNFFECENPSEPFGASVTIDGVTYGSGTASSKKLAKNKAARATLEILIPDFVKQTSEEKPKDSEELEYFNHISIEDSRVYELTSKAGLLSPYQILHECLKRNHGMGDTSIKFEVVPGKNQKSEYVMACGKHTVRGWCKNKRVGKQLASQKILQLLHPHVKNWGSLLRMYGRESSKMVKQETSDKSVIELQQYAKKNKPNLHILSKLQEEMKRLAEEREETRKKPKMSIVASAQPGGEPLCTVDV
UniProt P36957: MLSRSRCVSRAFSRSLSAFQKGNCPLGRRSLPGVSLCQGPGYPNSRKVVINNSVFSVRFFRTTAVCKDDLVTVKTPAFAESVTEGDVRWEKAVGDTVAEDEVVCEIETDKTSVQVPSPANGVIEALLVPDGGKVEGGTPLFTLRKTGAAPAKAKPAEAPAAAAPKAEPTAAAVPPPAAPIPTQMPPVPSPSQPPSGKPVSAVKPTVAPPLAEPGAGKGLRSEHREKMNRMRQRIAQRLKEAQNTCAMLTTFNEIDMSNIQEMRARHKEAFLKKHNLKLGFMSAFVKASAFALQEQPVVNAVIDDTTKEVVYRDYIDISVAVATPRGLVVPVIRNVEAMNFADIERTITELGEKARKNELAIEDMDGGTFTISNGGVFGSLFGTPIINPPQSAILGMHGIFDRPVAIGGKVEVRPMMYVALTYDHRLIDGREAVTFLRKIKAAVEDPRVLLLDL
UniProt Q92499: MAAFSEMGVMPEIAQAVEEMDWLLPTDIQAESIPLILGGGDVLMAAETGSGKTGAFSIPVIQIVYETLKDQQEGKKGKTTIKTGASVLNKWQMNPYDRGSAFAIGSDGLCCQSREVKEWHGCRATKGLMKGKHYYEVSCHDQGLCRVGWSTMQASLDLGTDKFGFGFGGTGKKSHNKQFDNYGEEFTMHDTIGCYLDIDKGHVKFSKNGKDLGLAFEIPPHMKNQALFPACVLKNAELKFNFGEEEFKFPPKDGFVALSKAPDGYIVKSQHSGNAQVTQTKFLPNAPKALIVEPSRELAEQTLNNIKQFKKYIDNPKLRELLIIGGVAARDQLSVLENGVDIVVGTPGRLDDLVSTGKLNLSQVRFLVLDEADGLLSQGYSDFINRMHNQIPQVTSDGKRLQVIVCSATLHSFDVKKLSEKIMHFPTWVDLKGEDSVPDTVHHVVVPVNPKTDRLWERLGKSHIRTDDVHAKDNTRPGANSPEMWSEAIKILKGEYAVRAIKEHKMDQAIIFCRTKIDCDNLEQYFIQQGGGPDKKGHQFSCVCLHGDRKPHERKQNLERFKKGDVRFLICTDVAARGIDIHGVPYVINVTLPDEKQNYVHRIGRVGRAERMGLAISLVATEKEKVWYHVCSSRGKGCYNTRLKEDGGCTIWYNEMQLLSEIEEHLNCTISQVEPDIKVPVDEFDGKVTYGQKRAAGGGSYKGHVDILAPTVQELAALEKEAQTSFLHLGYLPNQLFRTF
UniProt O75064: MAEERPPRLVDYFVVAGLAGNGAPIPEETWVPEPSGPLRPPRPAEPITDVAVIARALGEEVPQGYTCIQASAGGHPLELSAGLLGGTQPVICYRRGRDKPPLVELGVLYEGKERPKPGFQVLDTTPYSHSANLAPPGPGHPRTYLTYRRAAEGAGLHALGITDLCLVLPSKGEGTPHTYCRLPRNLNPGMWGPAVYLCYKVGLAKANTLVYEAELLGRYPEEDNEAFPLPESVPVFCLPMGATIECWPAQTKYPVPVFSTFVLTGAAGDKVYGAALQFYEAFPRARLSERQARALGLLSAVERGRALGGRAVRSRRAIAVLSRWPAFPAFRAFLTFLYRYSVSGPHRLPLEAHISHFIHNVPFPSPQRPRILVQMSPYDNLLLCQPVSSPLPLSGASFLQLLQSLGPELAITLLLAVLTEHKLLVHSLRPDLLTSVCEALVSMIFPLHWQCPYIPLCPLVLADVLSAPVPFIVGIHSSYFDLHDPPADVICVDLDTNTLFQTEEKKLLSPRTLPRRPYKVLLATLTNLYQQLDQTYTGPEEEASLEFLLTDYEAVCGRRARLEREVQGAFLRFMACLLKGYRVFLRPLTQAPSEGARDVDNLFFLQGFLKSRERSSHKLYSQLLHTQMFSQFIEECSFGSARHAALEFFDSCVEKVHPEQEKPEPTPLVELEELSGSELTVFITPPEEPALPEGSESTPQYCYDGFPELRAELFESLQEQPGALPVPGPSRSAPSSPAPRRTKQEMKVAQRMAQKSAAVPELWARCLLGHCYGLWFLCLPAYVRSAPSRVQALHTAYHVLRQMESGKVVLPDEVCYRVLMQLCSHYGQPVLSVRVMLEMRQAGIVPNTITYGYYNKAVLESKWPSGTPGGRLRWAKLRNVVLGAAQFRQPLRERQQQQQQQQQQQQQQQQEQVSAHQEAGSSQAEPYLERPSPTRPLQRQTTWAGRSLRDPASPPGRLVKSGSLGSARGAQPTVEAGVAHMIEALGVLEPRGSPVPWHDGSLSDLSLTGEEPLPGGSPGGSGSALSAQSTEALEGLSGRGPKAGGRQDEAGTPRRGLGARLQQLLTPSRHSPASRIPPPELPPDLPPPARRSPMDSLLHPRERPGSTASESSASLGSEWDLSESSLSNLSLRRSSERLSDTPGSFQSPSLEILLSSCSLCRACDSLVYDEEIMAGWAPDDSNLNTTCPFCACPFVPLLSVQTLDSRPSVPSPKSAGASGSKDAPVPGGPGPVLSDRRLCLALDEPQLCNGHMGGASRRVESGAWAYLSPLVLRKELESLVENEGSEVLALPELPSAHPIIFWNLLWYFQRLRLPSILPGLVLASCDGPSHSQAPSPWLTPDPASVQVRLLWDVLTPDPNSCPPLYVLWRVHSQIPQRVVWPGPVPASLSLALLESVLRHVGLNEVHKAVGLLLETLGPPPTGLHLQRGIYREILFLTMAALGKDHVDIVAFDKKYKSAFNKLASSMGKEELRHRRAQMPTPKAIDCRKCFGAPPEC
UniProt P39656: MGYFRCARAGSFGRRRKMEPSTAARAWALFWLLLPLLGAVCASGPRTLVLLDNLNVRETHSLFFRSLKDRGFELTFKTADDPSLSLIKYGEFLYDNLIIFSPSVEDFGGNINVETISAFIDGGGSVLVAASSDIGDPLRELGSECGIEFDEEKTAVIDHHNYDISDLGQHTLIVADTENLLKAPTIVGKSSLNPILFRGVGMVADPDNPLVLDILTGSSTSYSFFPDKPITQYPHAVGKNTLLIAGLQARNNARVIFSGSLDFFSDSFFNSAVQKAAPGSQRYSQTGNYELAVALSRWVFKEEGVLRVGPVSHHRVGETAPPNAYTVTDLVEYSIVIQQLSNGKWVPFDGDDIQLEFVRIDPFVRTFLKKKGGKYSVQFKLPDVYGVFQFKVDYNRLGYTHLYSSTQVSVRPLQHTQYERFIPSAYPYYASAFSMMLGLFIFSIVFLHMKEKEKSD

Legend:
Assay in all cases: log2 fold change, soluble protein after heating vs DMSO (PISA); higher = thermal stabilisation; K562 cells, 10 uM, 30 min; active = over 0.2 and 3.5 SD of the protein, either way, in both replicates (recomputed)
[1] = compound: NC(=O)Nc1cc(-c2cccc(F)c2)sc1C(=O)N[C@H]1CCCNC1
Method in brief: (§1)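 K562 cells at 2×10^6 cells/mL were treated for 30 min with 10 μM compound, and aliquots were heated for 3 min over 48°C-58°C before pooling. Extraction used PBS with 0.5% NP-40 at 4°C, and soluble protein was the supernatant after 21,000xg for 90 min, measured by TMTpro 16plex LC-MS/MS with channel sums equalised. Thermal stability values, relative to control samples and from duplicates, are log2 fold changes.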

[2] = compound: NC(=O)c1cnc(N[C@@H]2CCCC[C@@H]2N)nc1Nc1cccc(-n2nccn2)c1
Method in brief: as §1

[3] = compound: NC1(c2ccc(-c3nc4ccn5c(=O)[nH]nc5c4cc3-c3ccccc3)cc2)CCC1
Method in brief: as §1

[4] = compound: NCC(=O)Nc1ccc(-n2nc(C(F)(F)F)cc2-c2ccc3c(ccc4ccccc43)c2)cc1
Method in brief: as §1

entinostat = compound: Nc1ccccc1NC(=O)c1ccc(CNC(=O)OCc2cccnc2)cc1 [entinostat]
Method in brief: as §1

vorinostat = compound: O=C(CCCCCCC(=O)Nc1ccccc1)NO [vorinostat]
Method in brief: as §1

citarinostat = compound: O=C(CCCCCCNC(=O)c1cnc(N(c2ccccc2)c2ccccc2Cl)nc1)NO [citarinostat]
Method in brief: as §1

silmitasertib = compound: O=C(O)c1ccc2c(c1)nc(Nc1cccc(Cl)c1)c1ccncc12 [silmitasertib]
Method in brief: as §1

[5] = compound: O=C1NC(=O)C(c2cnc3ccccn23)=C1c1cn2c3c(cc(F)cc13)CN(C(=O)N1CCCCC1)CC2
Method in brief: as §1

[6] = compound: c1cc(OCCN2CCCCC2)cc(-c2n[nH]c3ccc(-c4nnc[nH]4)cc23)c1
Method in brief: as §1

Measured: log2 fold change

DDX59 (UniProt Q5T1V6)
inactive: [1] 0 | [2] -0.038 | [3] -0.032 | [4] -0.034 | entinostat 0.008 | vorinostat -0.014 | citarinostat 0.127 | silmitasertib 0.054 | [5] -0.173 | [6] -0.019

DIP2B (UniProt Q9P265)
inactive: [1] -0.024 | [2] -0.003 | [3] -0.043 | [4] 0.015 | entinostat 0.013 | vorinostat -0.012 | citarinostat 0.003 | silmitasertib -0.046 | [5] -0.016 | [6] -0.029

DHCR7 (UniProt Q9UBM7)
inactive: [1] 0.08 | [2] 0.014 | [3] 0.239 | [4] -0.134 | entinostat 0.082 | vorinostat 0.03 | citarinostat -0.023 | silmitasertib -0.084 | [5] -0.04 | [6] -0.026

DHX9 (UniProt Q08211)
inactive: [1] -0.011 | [2] 0.036 | [3] 0.225 | [4] 0.079 | entinostat 0 | vorinostat -0.007 | citarinostat -0.08 | silmitasertib 0.201 | [5] 0.201 | [6] -0.18

DLGAP4 (UniProt Q9Y2H0)
inactive: [1] 0.028 | [2] -0.037 | [3] -0.006 | [4] -0.01 | entinostat -0.046 | vorinostat -0.039 | citarinostat 0.052 | silmitasertib -0.024 | [5] -0.059 | [6] -0.097

DHX38 (UniProt Q92620)
inactive: [1] 0.053 | [2] 0.042 | [3] -0.066 | [4] 0.006 | entinostat -0.01 | vorinostat -0.02 | citarinostat 0.009 | silmitasertib 0.024 | [5] -0.003 | [6] -0.01

DHODH (UniProt Q02127)
inactive: [1] 0.012 | [2] -0.004 | [3] -0.01 | [4] 0.017 | entinostat -0.006 | vorinostat -0.01 | citarinostat 0.001 | silmitasertib 0.016 | [5] -0.036 | [6] -0.015

DHRS3 (UniProt O75911)
inactive: [1] -0.032 | [2] -0.047 | [3] -0.081 | [4] -0.06 | entinostat 0.05 | vorinostat -0.084 | citarinostat 0.024 | silmitasertib 0.009 | [5] 0.046 | [6] -0.06

DIAPH1 (UniProt O60610)
inactive: [1] -0.156 | [2] -0.085 | [3] -0.067 | [4] -0.064 | entinostat 0.024 | vorinostat 0.066 | citarinostat 0.056 | silmitasertib 0.115 | [5] 0.178 | [6] -0.046

DHX29 (UniProt Q7Z478)
inactive: [1] 0.066 | [2] 0.009 | [3] 0.111 | [4] 0 | entinostat 0.008 | vorinostat -0.015 | citarinostat -0.045 | silmitasertib 0.099 | [5] 0.156 | [6] -0.067

DNAH11 (UniProt Q96DT5)
inactive: [1] -0.099 | [2] -0.064 | [3] 0.346 | [4] 0.044 | entinostat -0.032 | vorinostat -0.24 | citarinostat -0.213 | silmitasertib 0.197 | [5] -0.098 | [6] -0.09

DGCR8 (UniProt Q8WYQ5)
inactive: [1] 0.115 | [2] 0.085 | [3] 0.256 | [4] 0.173 | entinostat 0.028 | vorinostat 0.008 | citarinostat -0.129 | silmitasertib 0.173 | [5] 0.219 | [6] -0.113

DNAAF5 (UniProt Q86Y56)
inactive: [1] -0.084 | [2] -0.086 | [3] -0.191 | [4] 0.139 | entinostat -0.295 | vorinostat 0.006 | citarinostat 0.032 | silmitasertib 0.112 | [5] 0.358 | [6] -0.187

DLGAP5 (UniProt Q15398)
inactive: [1] -0.034 | [2] -0.128 | [3] -0.095 | [4] -0.024 | entinostat 0.03 | vorinostat 0.049 | citarinostat 0.04 | silmitasertib 0.11 | [5] -0.025 | [6] -0.019

DDX46 (UniProt Q7L014)
inactive: [1] -0.185 | [2] -0.087 | [3] -0.178 | [4] -0.197 | entinostat 0.095 | vorinostat 0 | citarinostat 0.103 | silmitasertib 0.018 | [5] -0.243 | [6] 0.084

DDX41 (UniProt Q9UJV9)
inactive: [1] -0.112 | [2] 0.192 | [3] -0.07 | [4] -0.137 | entinostat 0.044 | vorinostat 0.107 | citarinostat -0.009 | silmitasertib -0.014 | [5] -0.038 | [6] -0.166

DENND4C isoform 7 (UniProt Q5VZ89)
inactive: [1] -0.001 | [2] -0.106 | [3] -0.17 | [4] -0.009 | entinostat 0.051 | vorinostat -0.098 | citarinostat 0.176 | silmitasertib 0.067 | [5] 0.051 | [6] -0.057

DLST (UniProt P36957)
inactive: [1] 0.04 | [2] 0.025 | [3] 0.04 | [4] 0.071 | entinostat -0.033 | vorinostat -0.029 | citarinostat -0.049 | silmitasertib -0.006 | [5] 0.015 | [6] -0.069

DHRS7B (UniProt Q6IAN0)
inactive: [1] -0.099 | [2] 0.083 | [3] -0.012 | [4] 0.117 | entinostat -0.014 | vorinostat 0.16 | citarinostat 0.01 | silmitasertib -0.05 | [5] -0.113 | [6] 0.077

DKC1 (UniProt O60832)
inactive: [1] 0.039 | [2] 0.049 | [3] 0.195 | [4] 0.027 | entinostat -0.061 | vorinostat -0.02 | citarinostat -0.072 | silmitasertib 0.073 | [5] 0.154 | [6] -0.15

DDI2 isoform 3 (UniProt Q5TDH0)
inactive: [1] 0.002 | [2] -0.024 | [3] -0.029 | [4] 0.02 | entinostat -0.013 | vorinostat 0.031 | citarinostat 0.038 | silmitasertib 0.003 | [5] -0.022 | [6] 0.039

DDX1 (UniProt Q92499)
inactive: [1] 0.079 | [2] -0.021 | [3] -0.024 | [4] 0.032 | entinostat 0.015 | vorinostat 0.012 | citarinostat 0.015 | silmitasertib 0.036 | [5] 0.211 | [6] -0.088

DDHD2 (UniProt O94830)
inactive: [1] 0.006 | [2] -0.065 | [3] -0.08 | [4] 0.023 | entinostat 0.032 | vorinostat 0.082 | citarinostat 0.047 | silmitasertib -0.02 | [5] -0.025 | [6] 0.026

Pulled one by one from the list above, 2 records:
DDHD2 (UniProt O94830)
inactive: [1] 0.006 | [2] -0.065 | [3] -0.08 | [4] 0.023 | entinostat 0.032 | vorinostat 0.082 | citarinostat 0.047 | silmitasertib -0.02 | [5] -0.025 | [6] 0.026

DDX1 (UniProt Q92499)
inactive: [1] 0.079 | [2] -0.021 | [3] -0.024 | [4] 0.032 | entinostat 0.015 | vorinostat 0.012 | citarinostat 0.015 | silmitasertib 0.036 | [5] 0.211 | [6] -0.088

Continuation:

DENND4B (UniProt O75064)
inactive: [1] 0.009 | [2] 0.06 | [3] 0.002 | [4] -0.021 | entinostat 0.026 | vorinostat 0.044 | silmitasertib 0.029 | [5] -0.043

DDOST (UniProt P39656)
inactive: [1] 0.003 | [2] -0.013 | [3] -0.057 | [4] 0.014 | entinostat 0.007 | vorinostat -0.036 | citarinostat 0.017 | silmitasertib 0.05 | [5] -0.017 | [6] -0.116

DDX56 (UniProt Q9NY93)
inactive: [1] -0.025 | [2] 0.1 | [3] -0.029 | [4] 0.172 | entinostat -0.091 | vorinostat -0.034 | citarinostat -0.139 | silmitasertib 0.067 | [5] 0.288 | [6] 0.029

DIDO1 (UniProt Q9BTC0)
inactive: [1] -0.016 | [2] -0.02 | [3] 0.032 | entinostat 0.037 | vorinostat 0.031 | citarinostat -0.075 | silmitasertib -0.036 | [5] -0.02 | [6] -0.221

DERA (UniProt Q9Y315)
inactive: [1] -0.014 | [2] 0.032 | [3] 0.05 | [4] 0.004 | entinostat -0.083 | vorinostat -0.012 | citarinostat 0.039 | silmitasertib -0.072 | [5] -0.026 | [6] -0.043

DDX21 (UniProt Q9NR30)
inactive: [1] 0.078 | [2] 0.123 | [3] 0.332 | [4] -0.015 | entinostat -0.009 | vorinostat 0.037 | citarinostat 0.04 | silmitasertib 0.071 | [5] 0.137 | [6] -0.106

DHX8 (UniProt Q14562)
inactive: [1] -0.086 | [2] -0.14 | [3] 0.03 | [4] -0.186 | entinostat -0.033 | vorinostat -0.094 | citarinostat -0.031 | silmitasertib 0.008 | [5] -0.002 | [6] -0.063
